Data reported in the supplement of paper PMC5949888.
Most values lie at the floor of the assay. Slopes are relative: functional sequences can read slightly below zero.

Tested on: Saccharomyces cerevisiae PS128 hsf1 delta, HSF1(1-493) fusion
Experiment: growth estimate (transactivation domain function in HSF1 fusion, heat-shock survival) (a.u. (slope of normalised read count over time)); higher = stronger growth at 37°C, i.e. more transactivation activity
Conditions: library: random library

Row | Substance | growth estimate
1 | LVGSSKVQLCFGSISDEQVC | < -0.25
2 | LVGTKIRGL | < -0.25
3 | LVHLAGVVYTGGAGGRIQVG | < -0.25
4 | LVHSM | -0.248
5 | LVIKLIAPEVLGTRYLRTY | < -0.25
6 | LVINARCGWGTFYSDWWSQV | < -0.25
7 | LVIVPVRVLYRQTVSVIRLM | < -0.25
8 | LVKCPCQYSPVCSHYRSLTR | < -0.25
9 | LVKWTWPADFARRLVVKLAT | < -0.25
10 | LVLATHLKRSVIKALVFETD | < -0.25
11 | LVLCT | -0.245
12 | LVLFEGSALSGECLRLLIRG | < -0.25
13 | LVLLTHARLILRPATSGYSE | < -0.25
14 | LVLSSPGLQVIRRVS | < -0.25
15 | LVLSYSVSTLSEGSIEGVRS | -0.203
16 | LVLWIPANYLVFMVSGHAVR | < -0.25
17 | LVLWYAYASRPHTLSCLGPR | < -0.25
18 | LVM | < -0.25
19 | LVMSHIRCLVSVMWWRSANC | < -0.25
20 | LVNGRNKNVSRPWR | -0.231
21 | LVNGRPSRMLDKGYLVAPLA | < -0.25
22 | LVNGVFRVSWTRPYQSLSVP | < -0.25
23 | LVNMWSNWLAGL | 0.131
24 | LVNPLFRCVVGSLNTSRIMG | < -0.25

Entries 19 through 21, reprinted for reference:
Row | Substance | growth estimate
19 | LVMSHIRCLVSVMWWRSANC | < -0.25
20 | LVNGRNKNVSRPWR | -0.231
21 | LVNGRPSRMLDKGYLVAPLA | < -0.25

(cont.)

Row | Substance | growth estimate
25 | LVPACVLGISRAVR | < -0.25
26 | LVPICVCNNRS | < -0.25
27 | LVPIGRIDLEVIAFTPPRSG | < -0.25
28 | LVPLLLWLPTMLGGNSNGPV | < -0.25
29 | LVPSRCSIEIASSVSLPLHD | < -0.25
30 | LVQ | < -0.25
31 | LVQMGKRSTSVHQSYGPQLR | < -0.25
32 | LVRAGCECPPCTLWRFTVAY | < -0.25
33 | LVRFFSRLK | -0.231
34 | LVRFLDSSRYHLLIASWPGP | < -0.25
35 | LVRFTMAGRFSLGHHH | -0.243
36 | LVRGRMRWREGSTTFSPWPA | < -0.25
37 | LVRHTRQVGTTGPMWSCPRS | < -0.25
38 | LVRTLILAPGVKLFLELSGY | < -0.25
39 | LVRV | < -0.25
40 | LVSGLDCCHYEVRTHRGERL | -0.194
41 | LVSLSPKVV | < -0.25
42 | LVSLVILLLVRIHLCQSIEY | < -0.25
43 | LVSPSQELGCQKNGQNRQYM | < -0.25
44 | LVSQTGIPQAVRTRRRVWVP | < -0.25
45 | LVSRGRSDNSMGLRRLRLY | < -0.25
46 | LVSSRHLSARPEEVVDDGWS | < -0.25
47 | LVSTP | < -0.25
48 | LVTCHIHCAYGEAAGWHGYH | < -0.25

As entered above.
growth estimate, LVSLSPKVV is entered as < -0.25
growth estimate, LVRFFSRLK is entered as -0.231

(next part)

Row | Substance | growth estimate
49 | LVTKEIAALLGRRFIPSAWA | < -0.25
50 | LVTRCPLMVRDPNREWWL | < -0.25
51 | LVVG | < -0.25
52 | LVVLAGGPCLAGKDLT | < -0.25
53 | LVWCG | < -0.25
54 | LVWSPTRGFSKVKEWFC | < -0.25
55 | LVYVPGRYAFVLRLTASSTH | < -0.25
56 | LWAWQRSRDYPH | < -0.25
57 | LWC | -0.216
58 | LWCLGPRDGGGQLTPRLRVH | < -0.25
59 | LWENQPHGHGL | < -0.25
60 | LWEQ | < -0.25
61 | LWGEIGKAWDARLEVE | < -0.25
62 | LWGEIVRSAVPYGKGFDTIR | -0.154
63 | LWGGFEFVRPTDCARS | < -0.25
64 | LWGNLQLRTATSVWGPKGSV | < -0.25
65 | LWHGWNELSSVYKCITYFKS | < -0.25
66 | LWIGKKGHLSRGMANMTFSS | < -0.25
67 | LWIPQRFEISD | < -0.25
68 | LWITEDGSALGSHRFTSQRR | < -0.25
69 | LWKQGAVPAG | < -0.25
70 | LWKRSRSDLVNKAN | < -0.25
71 | LWLCKDLDGVRFLVRLA | < -0.25
